Measured values reported in PubChem BioAssay AID445 (National Center for Advancing Translational Sciences (NCATS), 2006).
Some of the results follow. These are further read-outs of the screen, such as a control signal, another cell line or another target. No call is given for them. Most of these compounds were active or inconclusive in the main read-out, so they are no random draw. Potencies come from curve fits of mixed quality, noted in brackets.

Assay: IkB Signaling
Conditions: ABC-DLBCL IkBa-CBG/CBR dual luciferase ratio (green luciferase fused to IkBa over red control in OCI-Ly3 lymphoma cells), 4 h; measured here: control luc red channel unless noted
Procedure, shortened: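 Luminescence ratio of IκBα-fused green versus native red beetle luciferase in OCI-Ly3 cells, 4 h post-doxycycline with compound; red signal alone, scaled from basal (0%) to zero light (-100%), flagged nonspecific or cytotoxic effects.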

| SMILES | AC50 |
| --- | --- |
| COc1cc(OC)c(NC(=O)Nc2ccccc2OCc2cc(=O)n3cc(C)ccc3n2)cc1Cl | 2.51 µM [falling, full curve] |
| COCCNC(=O)c1cc(Sc2ccc(F)cc2F)nc2ccccc12 | 15.8 µM [falling, partial curve, poor fit] |
| O=C(c1ccc2c(c1)N(Cc1ccc(F)cc1)C(=O)c1ccccc1S2(=O)=O)N1CCC(Cc2ccccc2)CC1 | 1 µM [falling, partial curve] |
| COc1ccc(-n2ccn(Cc3ccc(C)cc3)c(=O)c2=O)cc1OC | 3.98 µM [rising, partial curve] |
| O=C(CSc1ccc2ccccc2n1)Nc1nsc(-c2ccc(Cl)cc2)n1 | 0.0794 µM [rising, full curve] |
| COc1ccc(Cn2c(SCc3ccc(C(=O)NCc4ccccc4F)cc3)nc3cccnc32)cc1 | 25.1 µM [falling, single point] |
| O=C(NCCc1ccccc1)c1c[nH]c2ccc(S(=O)(=O)Nc3ccccc3F)cc2c1=O | 12.6 µM [falling, single point] |
| COc1ccc(NC(=O)Nc2nnc(N(C)C3CCCCC3)s2)c(OC)c1 | 20 µM [falling, partial curve] |
| CC1CCN(C(=O)c2cc(-c3ccc(Cl)cc3)on2)CC1 | 0.0631 µM [falling, full curve] |
| CSc1nc2c(c(-c3ccc(O)cc3)c1C#N)CCC2 | 15.8 µM [falling, partial curve] |
| CN=C(N)NCCC[C@H](N)C(=O)O | 2 µM [rising, full curve, poor fit] |
| O=C1c2[nH]nc(-c3ccccc3O)c2C(c2cccc(Cl)c2)N1Cc1ccco1 (configuration not stated) | 20 µM [falling, partial curve] |
| CCN(CC)c1ccc(NC(=O)c2cncc(Br)c2)cc1 | 12.6 µM [falling, partial curve] |
| COc1ccc(Cl)cc1NC(=O)CCCn1c(C)c2cnn(-c3ccccc3)c(=O)c2c1C | 0.316 µM [falling, full curve] |
| O=c1n(Cc2ccccc2)c2cc(Cl)cnc2n1Cc1ccccc1 | 15.8 µM [falling, partial curve] |
| O=c1c2c(nc3c(-c4ccc(Cl)cc4)c[nH]n13)CCCC2 | 31.6 µM [falling, partial curve] |
| COc1ccc(-c2noc(N3CCC(C(=O)Nc4ccc(C)c(F)c4)CC3)n2)cc1OC | 5.01 µM [falling, partial curve] |
| CCOC(=O)c1c(-c2ccc(C)cc2C)csc1NC(=O)CSc1nnnn1C | 39.8 µM [falling, single point] |
| Cc1ccc(NC(=O)CC2Nc3cccc4cccc(c34)NC2=O)cc1 (configuration not stated) | 25.1 µM [falling, partial curve] |
| COc1ccc(N(Cc2ccccc2)C(=O)c2nc(SC)ncc2Cl)cc1 | 12.6 µM [falling, partial curve] |
| CCOc1ccccc1-n1c(SCC(N)=O)nnc1-c1ccco1 | 25.1 µM [falling, partial curve] |

Part of the list above in order of length of the SMILES, rising:

| SMILES | AC50 |
| --- | --- |
| CN=C(N)NCCC[C@H](N)C(=O)O | 2 µM [rising, full curve, poor fit] |
| O=c1n(Cc2ccccc2)c2cc(Cl)cnc2n1Cc1ccccc1 | 15.8 µM [falling, partial curve] |
| COc1ccc(N(Cc2ccccc2)C(=O)c2nc(SC)ncc2Cl)cc1 | 12.6 µM [falling, partial curve] |

(continued)

| SMILES | AC50 |
| --- | --- |
| Cn1c(=O)c2c(-c3cccc(Br)c3)n(C(C)(C)CO)cc2n(C)c1=O | 39.8 µM [falling, single point] |
| Cc1cc2cc(CCNC(=O)c3c(-c4ccccc4Cl)noc3C)c(=O)[nH]c2cc1C | 10 µM [falling, partial curve] |
| CN(C)c1ccc(CNC(=O)c2cccc(NC(=O)N3CCSc4ncccc43)c2)cc1 | 12.6 µM [falling, partial curve] |
| O=C1N(Cc2ccccc2)c2ccc(Cl)cc2C1(O)c1c[nH]c2ccccc12 (configuration not stated) | 20 µM [falling, partial curve] |
| Cc1cc2nc(-c3ccc(OCc4ccccc4Cl)cc3)cc(C(F)(F)F)n2n1 | 31.6 µM [falling, single point] |
| COc1ccccc1NC(=O)Cn1c(SCC(=O)N(C)c2ccccc2)nc2ccccc21 | 20 µM [falling, single point] |
| COc1cccc2c1cc1c(=O)n(CC(=O)N3CCN(c4ccc(Cl)cc4)CC3)nc(C)n12 | 5.01 µM [rising, full curve] |
| Fc1ccc(Nc2ncnc3onc(-c4cccc(Cl)c4)c23)c(F)c1 | 2.51 µM [falling, full curve] |
| Cc1cc(C)cc(NC(=O)Cn2cc(S(=O)(=O)NC(C)(C)C)c(S(=O)(=O)NC(C)(C)C)c2)c1 | 25.1 µM [falling, partial curve] |
| CC(C)c1nc(SCC(=O)N2CCN(c3ccccc3)CC2)c2c(=O)n(C)c(=O)n(C)c2n1 | 2.51 µM [falling, full curve, poor fit] |
| Cc1ccc(S(=O)(=O)Nc2cccc3ncccc23)s1 | 794 nM [rising, full curve] [measured here: IkB-luc green channel] |
| COc1cc(OC)c(/C=C2/C(=O)Nc3ccccc32)c(OC)c1 | 2 µM [rising, full curve] [measured here: IkB-luc green channel] |
| CCN1CCN(Cc2nc3cc(NC(=O)c4cc(OC)c(OC)c(OC)c4)ccc3n2CC)CC1 | 25.1 µM [falling, single point] |
| COc1ccc(S(=O)(=O)n2nc(-c3ccco3)nc2NCc2ccc(N(C)C)cc2)cc1 | 10 µM [falling, partial curve] |
| Cc1cccnc1NC(=O)c1c(O)c2ccccc2n(C)c1=O | 10 µM [falling, partial curve] |
| CCc1ccccc1NC(c1nnc(-c2cccc(F)c2)o1)c1ccc(F)cc1Cl (configuration not stated) | 25.1 µM [falling, partial curve] |
| Cn1cccc1-c1nc2ccc(NC(=O)c3cccs3)cc2[nH]1 | 12.6 µM [falling, partial curve] |
| Cc1ccc2scc(N3CCc4ccccc4C3)c(=O)c2c1 | 0.316 µM [falling, partial curve] |
| COc1ccccc1CN(CC(=O)NCc1ccco1)C(=O)CNS(=O)(=O)c1ccc(C)cc1 | 12.6 µM [falling, partial curve] |
| COc1cc(OC)cc(-c2nc3nc(C)c(CCC(=O)Nc4ccc(C)c(C)c4)c(C)n3n2)c1 | 10 µM [falling, partial curve] |
| Cc1cc(-c2nc3ncccc3o2)ccc1NC(=O)COc1ccccc1C | 39.8 µM [rising, single point] |

| SMILES | AC50 |
| --- | --- |
| Cc1ccc2occ(CC(=O)N(Cc3ccc(Cl)cc3)C3CCS(=O)(=O)C3)c2c1 (configuration not stated) | 25.1 µM [falling, partial curve] |
| Cn1cc(C2=C(c3ccc(Cl)cc3Cl)C(=O)NC2=O)c2ccccc21 | 39.8 µM [falling, partial curve] |
| O=C(Cc1ccccc1)NC1CC(=O)N(c2ccccc2)C1 (configuration not stated) | 7.94 µM [falling, single point] |
| Cc1ccc(-c2noc(CNS(=O)(=O)c3ccc(F)cc3)n2)cc1 | 39.8 µM [falling, single point] |
| COc1ccccc1N1CCN(C(=O)CN2C(=O)COc3ccc(S(=O)(=O)N4CCCCCC4)cc32)CC1 | 31.6 µM [falling, single point] |
| Cc1c(NC(=O)c2cc(-c3ccc(F)cc3)on2)c(=O)n(-c2ccccc2)n1C | 5.01 µM [falling, partial curve] |
| CCN(CC)c1ccc(NC(=O)c2cnc3c(-c4ccccc4)c(C)nn3c2C)c(C)c1 | 39.8 µM [falling, single point] |
| Clc1cccc(-c2nc(-c3ccccn3)no2)c1 | 10 µM [falling, partial curve] |
| CCOC(=O)c1cc2c(=O)n3ccccc3nc2n(C(C)C)c1=NC(=O)c1cc2ccccc2o1 | 31.6 µM [falling, single point] |
| COc1ccc(CNC(=O)CN2C(=O)COc3ccc(S(=O)(=O)Nc4ccccc4)cc32)cc1 | 31.6 µM [falling, single point] |
| O=C(Nc1ccc(F)c(F)c1)c1cc(S(=O)(=O)NC2CCCCCC2)ccc1F | 15.8 µM [falling, partial curve] |
| Cn1c2ccccc2c2c(C(=O)N3CCN(c4ccccn4)CC3)cn(C3CCCC3)c(=O)c21 | 15.8 µM [falling, partial curve] |
| CNC(=O)c1c(NC(=O)c2ccc(S(=O)(=O)N3CCCCC3)cc2)sc2c1CCC2 | 12.6 µM [falling, partial curve] |
| CCCCN(CCCC)CCNC(=O)Cn1nc(C)n2c(cc3sccc32)c1=O | 0.1 µM [falling, partial curve, poor fit] |
| CC(C)c1ccc(NC(=O)CS(=O)(=O)c2cccc3nsnc23)cc1 | 1.58 µM [rising, full curve, poor fit] |
| CC(C)(C)c1ccc(C(=O)N2CCC(c3nc(-c4ccc(S(=O)(=O)N5CCCC5)cc4)no3)CC2)cc1 | 25.1 µM [falling, single point] |
| CCOc1ccc(-c2cc3c(=O)n(Cc4nc(-c5ccc(OC(C)C)cc5)oc4C)ccn3n2)cc1Cl | 0.0251 µM [rising, full curve, poor fit] |
| CS(=O)(=O)N1CCCC(C(=O)NCc2ccco2)C1 (configuration not stated) | 1.58 µM [rising, partial curve] |
| CCCCN(CC)CCCNC(=O)Cn1ncc2c3ccccc3n(Cc3ccccc3F)c2c1=O | 25.1 µM [falling, single point] |
| Cc1ccc(-c2n[nH]c3c2C(c2cccc(O)c2)N(c2ccc(C(=O)O)cc2)C3=O)cc1 (configuration not stated) | 7.94 µM [falling, partial curve] |
